Data set [1] concerns source genes (mRNA). As to the kind of experiment: Expression profiling of source genes by in-house RNASeq of tumor and normal tissues (Table 18, FIG. 2). Also on record: species or system human; key: very highly over-expressed in tumors compared to a panel of normal tissues (+++); highly over-expressed in tumors compared to a panel of normal tissues (++); over-expressed in tumors compared to a panel of normal tissues (+). Conditions: source gene of peptide; for Expression score AML: acute myeloid leukemia (N = 11) vs panel of normal tissues; for Expression score OSCAR: esophageal cancer incl. gastric-esophageal junction (N = 11) vs panel of normal tissues; for Expression score GB: glioblastoma (N = 24) vs panel of normal tissues; for Expression score NHL: non-Hodgkin lymphoma (N = 10) vs panel of normal tissues; for Expression score OC: ovarian cancer (N = 12) vs panel of normal tissues; for Expression score SCLC: small cell lung cancer (N = 10) vs panel of normal tissues.

Data set [2] concerns source genes (mRNA). Nature of the data set: Gene and exon expression of source genes, TCGA tumor samples compared with normal tissue samples (Lonsdale, 2013) (Table 17). Also on record: species or system human. Conditions: tumor expression more than 2-fold above highest 75% percentile of high and medium risk normal tissues; for Target coverage: over-expression category of source gene, LAML: Acute Myeloid Leukemia (N = 173); for Target coverage: over-expression category of source gene, BLCA: Bladder urothelial carcinoma (N = 408); for Target coverage: over-expression category of source gene, BRCA: Breast cancer (N = 1104); for Target coverage: over-expression category of source gene, READ: Colon and rectal adenocarcinoma (N = 167); for Target coverage: over-expression category of source gene, COAD: Colon and rectal adenocarcinoma (N = 462); for Target coverage: over-expression category of source gene, ESCA: Esophageal cancer (N = 185); for Target coverage: over-expression category of source gene, GBM: Glioblastoma multiforme (N = 169); for Target coverage: over-expression category of source gene, LUAD: Lung adenocarcinoma (N = 517); for Target coverage: over-expression category of source gene, LUSC: Lung squamous cell carcinoma (N = 503); for Target coverage: over-expression category of source gene, DLBC: Lymphoid neoplasm diffuse large B-cell lymphoma (N = 48); for Target coverage: over-expression category of source gene, OV: Ovarian serous cystadenocarcinoma (N = 309); for Target coverage: over-expression category of source gene, SKCM: Skin cutaneous melanoma (N = 473); for Target coverage: over-expression category of source gene, STAD: Stomach adenocarcinoma (N = 415); for Target coverage: over-expression category of source gene, UCEC: Uterine corpus endometrial carcinoma (N = 546).

The subject of data set [3] is HLA-A*24. Nature of the data set: Identification and relative LC-MS quantitation of HLA-A*24-presented tumor-associated peptides on tissue samples (presentation profiles, Tables 14A, 14B, 16, FIG. 1). On the set-up: species or system human; key to Presentation score GC / Presentation score NSCLC / Presentation score PCA / Presentation score GB / Presentation score HCC / Presentation score RCC: specifically presented on tumors (++++); very highly over-presented on tumors compared to a panel of normal tissues (+++); highly over-presented on tumors compared to a panel of normal tissues (++); over-presented on tumors compared to a panel of normal tissues (+). Conditions: for Presentation score GB: glioblastoma (N = 18) vs panel of normal tissues (N = 70); for Presentation score NSCLC: non-small cell lung cancer (N = 91) vs panel of normal tissues (N = 70); for Peptide Presentation on cancer entities: Table 14A, HLA-A*24-binding tumor-associated peptides, cancer entities on which the peptide was found presented; for Presentation score PCA: prostate cancer (N = 40) vs panel of normal tissues (N = 70).

For some assays here: For expression read-outs the peptide stands for its source gene, whose mRNA was measured; the gene is not named for every peptide.

On to “268: peptide found in TYMS (gene looked up) (QYLGQIQHI; listed as Homo sapiens) [compound 268]”, for which, in data set [1], the “Expression score AML” value is “+”, the “Expression score OSCAR” value is “+”, the “Expression score GB” value is on record as “+” and the “Expression score NHL” value is “++”. In data set [1], the “Expression score OC” value was “++” and the “Expression score SCLC” value is on record as “++”. Moreover, the “Expression score UBC” value in data set [1] (urinary bladder cancer (N = 10) vs panel of normal tissues) is reported as “+”. In data set [2], the “Target coverage: over-expression category of source gene, LAML” value is “A (>=50% of tumors above the cutoff)”; the “Target coverage: over-expression category of source gene, BLCA” value is “A (>=50% of tumors above the cutoff)”; the “Target coverage: over-expression category of source gene, BRCA” value is “B (>= 20% of tumors above the cutoff, but <50%)”; the “Target coverage: over-expression category of source gene, READ” value is “B (>= 20% of tumors above the cutoff, but <50%)”. Further, in data set [2], the “Target coverage: over-expression category of source gene, COAD” value was “A (>=50% of tumors above the cutoff)”; the “Target coverage: over-expression category of source gene, ESCA” value was “A (>=50% of tumors above the cutoff)”; the “Target coverage: over-expression category of source gene, GBM” value is recorded as “A (>=50% of tumors above the cutoff)”; the “Target coverage: over-expression category of source gene, LUAD” value is “B (>= 20% of tumors above the cutoff, but <50%)”. Also, in data set [2], the “Target coverage: over-expression category of source gene, LUSC” value was “A (>=50% of tumors above the cutoff)”; the “Target coverage: over-expression category of source gene, DLBC” value is recorded as “A (>=50% of tumors above the cutoff)”; the “Target coverage: over-expression category of source gene, OV” value is “A (>=50% of tumors above the cutoff)”; the “Target coverage: over-expression category of source gene, SKCM” value is listed as “A (>=50% of tumors above the cutoff)”. Besides, in data set [2], the “Target coverage: over-expression category of source gene, STAD” value is reported as “A (>=50% of tumors above the cutoff)” and the “Target coverage: over-expression category of source gene, UCEC” value is listed as “A (>=50% of tumors above the cutoff)”. Further, in data set [2] (Cholangiocarcinoma (N = 36)), the “Target coverage: over-expression category of source gene, CHOL” value is “A (>=50% of tumors above the cutoff)”. The “Target coverage: over-expression category of source gene, KIRC” value in data set [2] (Clear cell kidney carcinoma (N = 534)) is given as “A (>=50% of tumors above the cutoff)”. Besides, the “Target coverage: over-expression category of source gene, LIHC” value in data set [2] (Liver hepatocellular carcinoma (N = 374)) is “B (>= 20% of tumors above the cutoff, but <50%)”. For the same substance, the “Target coverage: over-expression category of source gene, LGG” value in data set [2] (Lower grade glioma (N = 534)) is “C (>=5% of tumors above the cutoff, but <20%)”. In addition, the “Target coverage: over-expression category of source gene, PAAD” value in data set [2] (Pancreatic ductal adenocarcinoma (N = 179)) is reported as “C (>=5% of tumors above the cutoff, but <20%)”. For the same substance, the “Target coverage: over-expression category of source gene, KIRP” value in data set [2] (Papillary kidney carcinoma (N = 291)) is listed as “B (>= 20% of tumors above the cutoff, but <50%)”. The “Presentation score GC” value in data set [3] (HLA-A*24 peptides, gastric cancer (N = 44) vs panel of normal tissues (N = 70)) is recorded as “++++”. In data set [3] (HLA-A*24 peptides), the “Presentation score GB” value is “++++” and the “Presentation score NSCLC” value was “++++”. Besides, the “Presentation score HCC” value in data set [3] (HLA-A*24 peptides, hepatocellular carcinoma (N = 15) vs panel of normal tissues (N = 70)) is reported as “++++”. The “Peptide Presentation on cancer entities” value in data set [3] is given as “GB, GC, NSCLC, HCC”.

Consider “272: peptide found in NCAPD2 (gene looked up) (QYLQDAYSF; listed as Homo sapiens) [compound 272]”, for which, in data set [1], the “Expression score OSCAR” value is “+”, the “Expression score NHL” value is “+”, the “Expression score OC” value is listed as “++” and the “Expression score SCLC” value is given as “+”. Also, the “Expression score NSCLC” value in data set [1] (non-small cell lung cancer (N = 11) vs panel of normal tissues) was “+”. In data set [2], the “Target coverage: over-expression category of source gene, LAML” value is reported as “A (>=50% of tumors above the cutoff)”; the “Target coverage: over-expression category of source gene, BLCA” value is given as “B (>= 20% of tumors above the cutoff, but <50%)”; the “Target coverage: over-expression category of source gene, BRCA” value is “B (>= 20% of tumors above the cutoff, but <50%)”; the “Target coverage: over-expression category of source gene, READ” value is on record as “B (>= 20% of tumors above the cutoff, but <50%)”. In data set [2], the “Target coverage: over-expression category of source gene, COAD” value was “B (>= 20% of tumors above the cutoff, but <50%)”; the “Target coverage: over-expression category of source gene, ESCA” value was “A (>=50% of tumors above the cutoff)”; the “Target coverage: over-expression category of source gene, GBM” value is “C (>=5% of tumors above the cutoff, but <20%)”; the “Target coverage: over-expression category of source gene, LUAD” value is reported as “C (>=5% of tumors above the cutoff, but <20%)”. Further, in data set [2], the “Target coverage: over-expression category of source gene, LUSC” value is listed as “A (>=50% of tumors above the cutoff)”; the “Target coverage: over-expression category of source gene, DLBC” value is listed as “B (>= 20% of tumors above the cutoff, but <50%)”; the “Target coverage: over-expression category of source gene, OV” value was “A (>=50% of tumors above the cutoff)”; the “Target coverage: over-expression category of source gene, SKCM” value was “B (>= 20% of tumors above the cutoff, but <50%)”. Moreover, in data set [2], the “Target coverage: over-expression category of source gene, STAD” value is on record as “A (>=50% of tumors above the cutoff)” and the “Target coverage: over-expression category of source gene, UCEC” value was “C (>=5% of tumors above the cutoff, but <20%)”. For the same substance, in data set [3] (HLA-A*24 peptides), the “Presentation score GB” value is “++++” and the “Presentation score NSCLC” value is “++++”. In addition, in data set [3], the “Peptide Presentation on cancer entities” value is on record as “GB, NSCLC”.

For the substance “274: peptide found in TAOK3 (gene looked up) (AYLHSHALI; listed as Homo sapiens) [compound 274]”, in data set [1], the “Expression score AML” value is on record as “+”, the “Expression score GB” value is given as “+” and the “Expression score NHL” value is listed as “+”. In addition, in data set [2], the “Target coverage: over-expression category of source gene, LAML” value is “A (>=50% of tumors above the cutoff)”; the “Target coverage: over-expression category of source gene, ESCA” value is “C (>=5% of tumors above the cutoff, but <20%)”; the “Target coverage: over-expression category of source gene, STAD” value is given as “B (>= 20% of tumors above the cutoff, but <50%)”. Besides, the “Target coverage: over-expression category of source gene, PRAD” value in data set [2] (Prostate adenocarcinoma (N = 498)) is on record as “B (>= 20% of tumors above the cutoff, but <50%)”. In data set [3] (HLA-A*24 peptides), the “Presentation score NSCLC” value is “++++” and the “Presentation score PCA” value was “++++”. Also, in data set [3], the “Peptide Presentation on cancer entities” value was “NSCLC, PCA”.

On to “275: peptide found in ROR1 (gene looked up) (EYINQGDLHEF; listed as Homo sapiens) [compound 275]”, for which the “Expression score CLL” value in data set [1] (chronic lymphocytic leukemia (N = 10) vs panel of normal tissues) is recorded as “+”. In addition, in data set [2], the “Target coverage: over-expression category of source gene, ESCA” value is “C (>=5% of tumors above the cutoff, but <20%)”; the “Target coverage: over-expression category of source gene, OV” value is “C (>=5% of tumors above the cutoff, but <20%)”; the “Target coverage: over-expression category of source gene, STAD” value is reported as “C (>=5% of tumors above the cutoff, but <20%)”. Besides, in data set [3] (HLA-A*24 peptides), the “Presentation score NSCLC” value is “++++” and the “Presentation score PCA” value was “++++”. Further, the “Peptide Presentation on cancer entities” value in data set [3] is “NSCLC, PCA”.

For the origin of these results see patent publication US20170189504A1, “NOVEL PEPTIDES AND COMBINATION OF PEPTIDES FOR USE IN IMMUNOTHERAPY AGAINST VARIOUS CANCERS” (immatics biotechnologies GmbH, priority 2015, published 2017).
